Results reported in patent US20130045922A1.
Results are given in words; binding and its absence hold for the method and conditions named. Some results given as binding are weak or reduced against the parent protein; the word gives no strength.

Sequences of proteins named here, by UniProt entry; tags and fusion partners are left off. A change or cut given only in a name is not applied to a line headed by its entry. A line that says so, or that is headed by a name, gives the form on record, which may keep a tag or linker.
hVEGF (P15692, form named): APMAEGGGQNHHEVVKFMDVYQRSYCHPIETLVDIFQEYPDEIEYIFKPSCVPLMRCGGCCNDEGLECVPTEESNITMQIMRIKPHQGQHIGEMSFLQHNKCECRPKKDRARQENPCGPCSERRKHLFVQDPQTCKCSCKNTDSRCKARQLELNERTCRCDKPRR

Key:
hVEGF (human) [1] = target: hVEGF (human) (UniProt P15692); assay: ELISA and dot blot with synthesized peptides
hVEGF (human) [2] = target: hVEGF (human) (UniProt P15692); assay: Table 1, column 'VEGF binding' (spot peptide array with hVEGF; ELISA and dot blot)
hVEGF (human) [3] = target: hVEGF (human) (UniProt P15692); assay: spot peptide array probed with hVEGF (FIG. 1B legend)

| Binder | binding (hVEGF (human) [1]) | binding (hVEGF (human) [2]) | binding (hVEGF (human) [3]) |
| --- | --- | --- | --- |
| PNIIPVLDEIKS [Peptide #42 (…)] | binds | binds | binds |
| ITNNTSSVIIEE [Peptide #122 (…)] | binds | binds | binds |
| LCGVCGYDRHAT [Peptide #77 (…)] | binds | binds | binds |
| LCGNSFSGGQPS [Peptide #3 (…)] | binds | binds | binds |

Results, then the binder that gave them:

| binding (hVEGF (human) [1]) | binding (hVEGF (human) [2]) | binding (hVEGF (human) [3]) | Binder |
| --- | --- | --- | --- |
| binds | binds | binds | CSFAYDLEAKANSLPPGNLRN [Peptide #640 (…)] |
| binds | binds | binds | DRVQRQTTTVVA [Peptide #237 (…)] |
